Source: PubChem BioAssay AID1347072 (National Center for Advancing Translational Sciences (NCATS), 2019)
Out of some 44,000 compounds screened, fewer than 10 were called active. Inconclusive results, whose numbers are uncertain, are shown with a selection of clear calls. Calls come from the whole dose curve; as a rule, active = well fitted curve in the direction sought with a large enough effect; inconclusive = small, poorly fitted or top-dose-only effect, or another doubt; inactive = no such curve, though single readings can be large or run the other way. Potencies of inconclusive entries are doubtful fits and often do not repeat.

The chains behind the UniProt entries cited, without tags or fusion partners. Where a name states a change or a piece, a line headed by the entry shows the natural chain unless it says otherwise.
UniProt P51570: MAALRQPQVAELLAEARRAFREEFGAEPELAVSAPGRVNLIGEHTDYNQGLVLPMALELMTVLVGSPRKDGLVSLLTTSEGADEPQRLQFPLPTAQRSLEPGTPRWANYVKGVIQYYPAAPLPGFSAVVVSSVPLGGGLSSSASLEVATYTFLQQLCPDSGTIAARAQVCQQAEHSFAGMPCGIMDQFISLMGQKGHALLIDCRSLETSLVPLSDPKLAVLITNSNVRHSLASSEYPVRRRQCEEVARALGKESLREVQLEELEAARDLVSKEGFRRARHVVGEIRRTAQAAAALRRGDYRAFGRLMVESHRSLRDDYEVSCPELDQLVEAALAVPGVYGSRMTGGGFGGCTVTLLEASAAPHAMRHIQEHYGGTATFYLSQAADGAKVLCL

What follows are compounds tested against Galactokinase (Homo sapiens) (UniProt P51570) (assay: qHTS Assay for Inhibitors of Human Galactokinase (GALK): NCGC Sytravon Library Screen). Settings: recombinant GALK, Kinase-Glo ATP luminescence, 1 h; series mostly up to 57.5 µM.
Summary of the method: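 Luminescent ATP-depletion readout (Kinase-Glo Plus) after 1 h room-temperature incubation of human GALK (5 nM) with galactose 100 µM and ATP 35 µM, pH 8.0 HEPES/Mg2+ buffer; compounds tested in qHTS format.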

Potency, inactive:
COc1ccc(N2CCN(S(=O)(=O)CCNC(=O)Cc3ccc(-c4ccccc4)cc3)CC2)cc1
O=C(NCCSc1c(-c2ccc(Br)cc2)[nH]c2ccccc12)c1ccc(S(=O)(=O)N2CCOCC2)cc1
COc1ccc(OCC(=O)Nc2ccc(-c3nc4cc(Cl)ccc4o3)cc2)cc1
COc1cccc2cc(C(=O)N3CCN(c4cc(C)ccc4C)CC3)c(=O)oc12
CCOC(=O)c1ccc(NC(=O)Cn2nc(SC)c(S(=O)(=O)c3ccc(Cl)cc3)c2N)cc1
O=c1c2oc3ccccc3c2n(Cc2cccc(Cl)c2)c(=O)n1Cc1ccco1
NS(=O)(=O)c1ccc(CCNc2nccn(-c3cccc(C(F)(F)F)c3)c2=O)cc1
Cc1ccc(-c2n[nH]c3c2C(c2cccc(O)c2)N(c2ccc(C(=O)O)cc2)C3=O)cc1 (stereo unspecified)
Cc1ccc(NS(=O)(=O)c2ccc3[nH]c4c(c3c2)CCCCCC4)cc1
COc1cccc(-c2nn3c(=O)cc(CN4CCN(C(=O)/C=C/c5ccccc5)CC4)nc3s2)c1
CCC(C)NC(=O)c1sc2nc(C)c(C(=O)Nc3ccc(Cl)cc3)c(-c3ccc(Br)cc3)c2c1N (stereo unspecified)
Cc1cc(N2CCC(C)CC2)nc2ccc(NC(=O)CCC(=O)N3CCN(c4cccc(C(F)(F)F)c4)CC3)cc12
Cc1ccc(NS(=O)(=O)c2ccc3c(c2)NC(=O)CCS3)c(Br)c1
CCC(Oc1ccccc1)C(=O)N1CCN(Cc2cc(=O)n3nc(-c4cccc(C)c4)sc3n2)CC1 (stereo unspecified)
COc1ccc(N2CC(NC(=O)C(c3ccccc3)c3ccccc3)CC2=O)cc1 (stereo unspecified)
CCOc1ccc(CCNC(=O)CCCn2c(=O)c3cccn3c3cccnc32)cc1
O=C1SC(Nc2ccc(Cl)cc2)C(=O)N1Cc1ccccc1 (stereo unspecified)
COc1cccc(NC(=O)C2=C(C)C(=O)OC23CCN(C(C)=O)CC3)c1
CCc1nn(CCCC(=O)NCc2ccc(C)cc2)c(=O)c2cc3occc3n12

Potency, inconclusive:
CCc1cccc(NC(=O)CSc2nncn3c2cc2sccc23)c1 1.78 µM [inhibitor, full curve, poor fit]
COc1ccc(C)cc1NC(=O)c1cc(S(=O)(=O)N2CCOCC2)cn1C 7.08 µM [inhibitor, partial curve, poor fit]
CC(=O)c1ccc(N2CCN(S(=O)(=O)c3c(C)nc4sc(C)cn4c3=O)CC2)cc1 1.12 µM [inhibitor, full curve, poor fit]
COc1cc(/C=C/c2nc(C#N)c(NC3CCCCC3)o2)cc(OC)c1OC 39.8 µM [inhibitor, partial curve, poor fit]
Cc1cc(N(CCO)Cc2ccccc2)n2nc(-c3ccc(C(C)(C)C)cc3)nc2n1 39.8 µM [inhibitor, partial curve, poor fit]
COc1ccc(N(Cc2cccs2)C(=O)Nc2cccc(Cl)c2)cc1 5.62 µM [inhibitor, full curve, poor fit]
COc1ccc(Cl)cc1NC(=O)CSc1nc(=O)n(Cc2ccco2)c2c1CCC2 44.7 µM [inhibitor, partial curve, poor fit]
COc1ccc(-c2ccc(NS(=O)(=O)c3ccc(NC(C)=O)cc3)cc2)nn1 14.1 µM [inhibitor, partial curve, poor fit]
Fc1ccc(CNCCCSc2nnnn2-c2ccccc2)cc1 1.78 µM [inhibitor, full curve, poor fit]
Cc1ccc(NS(=O)(=O)c2ccc3c(c2)NC(=O)C(C)C(=O)N3)cc1F (stereo unspecified) 1 µM [inhibitor, full curve, poor fit]
Cc1cccc(OCC(=O)NC(Cc2c[nH]c3ccccc23)C(=O)O)c1C (stereo unspecified) 25.1 µM [inhibitor, partial curve, poor fit]
COc1ccc(C)cc1NC(=O)Cn1c(=O)n(Cc2nc(C)no2)c(=O)c2ccccc21 1.12 µM [inhibitor, full curve, poor fit]
O=C(COc1ccc(F)cc1)NCC(c1ccc(Cl)cc1)N1CCCCC1 (stereo unspecified) 7.94 µM [inhibitor, full curve, poor fit]
COc1ccc(Cn2c(C(=O)O)c(CNCc3ccco3)c3ccc(OC)cc32)cc1 0.316 µM [inhibitor, full curve, poor fit]
CC(C)c1ccc(NC(=O)CN2C(=O)COc3ccc(S(=O)(=O)N4CCCCC4)cc32)cc1 2.24 µM [inhibitor, full curve, poor fit]
CCOC(=O)c1cc2c(=O)n3ccccc3nc2n(C(C)C)c1=NC(=O)c1cc2ccccc2o1 3.16 µM [inhibitor, full curve, poor fit]
CCOc1ccc(C2c3c(oc4ccccc4c3=O)C(=O)N2c2nnc(C)s2)cc1OC (stereo unspecified) 39.8 µM [inhibitor, single point]
CCN(C(=O)Cn1c(=O)nc(-c2ccccc2)c2cc(Cl)ccc21)c1cccc(C)c1 7.94 µM [inhibitor, partial curve, poor fit]
CC(CNC(=O)c1ccc(CSc2nc3ccncc3n2Cc2ccccc2)cc1)c1ccccc1 (stereo unspecified) 44.7 µM [inhibitor, partial curve, poor fit]
CCc1ccc(OCc2nc(-c3ccc(OC)cc3)no2)c(Br)c1 0.316 µM [inhibitor, full curve, poor fit]
CCOc1ccc(S(=O)(=O)N(CC(=O)NCc2ccccc2OC)c2ccccc2)cc1 0.316 µM [inhibitor, full curve, poor fit]
CCSc1nc(-c2ccccc2OC)nc2c1Cc1c(CO)cnc(C)c1O2 1.41 µM [inhibitor, full curve, poor fit]
CCOC(=O)c1[nH]c(C)c(CCC(=O)NCc2ccc(N(C)C)cc2)c1C 44.7 µM [inhibitor, partial curve, poor fit]
COc1cc(CN(C(=O)COc2ccc(C)cc2)c2ccccn2)cc(OC)c1OC 5.01 µM [inhibitor, full curve, poor fit]
Cc1c(Cl)cccc1NC(c1ccc(F)cc1)c1nnc(-c2ccccc2)o1 (stereo unspecified) 0.794 µM [inhibitor, full curve, poor fit]
COc1ccc2c(Sc3ccc(Cl)cc3)c(C(=O)NCCCN3CCCCC3)[nH]c2c1 1.12 µM [inhibitor, full curve, poor fit]
CCOC(=O)c1c(C)oc2c1cc(NS(=O)(=O)c1ccc(C)cc1)c1ccccc12 31.6 µM [inhibitor, partial curve, poor fit]
COc1ccc(NC(=O)CSc2nc3c(oc4ccccc43)c(=O)n2-c2ccccc2)cc1OC 6.31 µM [inhibitor, single point]
Clc1ccc(CSc2nncn3c2cc2occc23)cc1 1 µM [inhibitor, full curve, poor fit]
Cc1ccccc1OCC(=O)Nc1ccc2nc(SCC(=O)N3CCCC3)sc2c1 0.141 µM [inhibitor, full curve, poor fit]
Nc1cc(=O)nc(SCC(=O)Nc2ccccc2)n1CCc1ccccc1 7.08 µM [inhibitor, partial curve, poor fit]
Cc1cccc(C)c1NC(=O)CS(=O)(=O)c1nc(-c2ccc(Cl)cc2)cn1-c1ccccc1 3.98 µM [inhibitor, partial curve, poor fit]
CC(C)OCc1cc(CN2CCN(c3cccc(C(F)(F)F)c3)CC2)c(O)c2ncccc12 3.16 µM [inhibitor, full curve, poor fit]
CCSc1nnc2c(n1)OC(c1ccc(C)cc1)N(C(C)=O)c1ccccc1-2 (stereo unspecified) 7.94 µM [inhibitor, partial curve, poor fit]
COc1ccc(CN(C(=O)Nc2cccc(Cl)c2)c2ccccn2)cc1OC 7.94 µM [inhibitor, full curve, poor fit]
O=C(CSc1ncc(S(=O)(=O)c2ccc(Cl)cc2)c(=O)[nH]1)Nc1ccc2c(c1)OCCO2 15.8 µM [inhibitor, partial curve, poor fit]
CC(=O)c1ccc(Nc2cc(C)nc3nc(Cc4ccc(Cl)cc4)nn23)cc1 39.8 µM [inhibitor, partial curve, poor fit]
Cc1ccc2onc(CNC(=O)NCc3cccc(Cl)c3)c2c1 5.62 µM [inhibitor, partial curve, poor fit]
COc1ccc(CNC(=O)c2ccc(NC(=O)N3CCSc4ccccc43)cc2)cc1 39.8 µM [inhibitor, partial curve, poor fit]
Cc1ccc(NC(=O)CSc2nnc3[nH]c(=O)cc(-c4ccccc4)n23)cc1Cl 31.6 µM [inhibitor, partial curve, poor fit]
CCCNC(=O)c1ccccc1NC(=O)c1nsc2ccccc12 44.7 µM [inhibitor, partial curve, poor fit]
CC(C)(C)c1ccc(Oc2nc3ccccn3c(=O)c2/C=C(\C#N)c2nc3ccccc3s2)cc1 39.8 µM [inhibitor, single point]

Ordered by formula weight (low to high): 4 of the compounds above.
Potency, inconclusive:
CCCNC(=O)c1ccccc1NC(=O)c1nsc2ccccc12 44.7 µM [inhibitor, partial curve, poor fit]
CCc1cccc(NC(=O)CSc2nncn3c2cc2sccc23)c1 1.78 µM [inhibitor, full curve, poor fit]
COc1ccc2c(Sc3ccc(Cl)cc3)c(C(=O)NCCCN3CCCCC3)[nH]c2c1 1.12 µM [inhibitor, full curve, poor fit]
COc1ccc(NC(=O)CSc2nc3c(oc4ccccc43)c(=O)n2-c2ccccc2)cc1OC 6.31 µM [inhibitor, single point]
